Laboratory results as given in the supplement of paper PMC4604168 (melanoma cell lines).
Some of the results follow. Repeats are few or missing, and single values can be far off.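 The apoptosis fraction was the count of cleaved-PARP antibody-stained nuclei relative to all DNA-stained nuclei, imaged in 1,536-well plates. Screening doses were set so most cells survived, and baseline and induced cleaved-PARP levels vary greatly across cell lines.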

Each compound was assayed on RVH-421 (assay: cleaved PARP positive nuclei fraction relative to DMSO control; melanoma cells; higher = more apoptosis). Details: library dose: low library concentration; 72 h.

| Compound | cleaved PARP positive nuclei fraction |
| --- | --- |
| CO[C@H]1C[C@@H]2CC[C@@H](C)[C@@](O)(O2)C(=O)C(=O)N2CCCC[C@H]2C(=O)O[C@H]([C@H](C)C[C@@H]2CC[C@@H](OCCO)[C@H](OC)C2)CC(=O)[C@H](C)/C=C(\C)[C@@H](O)[C@@H](OC)C(=O)[C@H](C)C[C@H](C)/C=C/C=C/C=C/1C [everolimus] + O=C1NC(=O)/C(=C/c2ccc(-c3ccc(F)cc3O)o2)S1 [AS252424] (first compound 0.02 µM, partner dose 1 µM) | 69.3% |
| O=C(O)[C@@H]1[O][Sb](=[O])([O][Sb]2(=[O])[O][C@H]([C@H](O)CO)[C@H](O)[C@H](C(=O)O)[O]2)[O][C@H]([C@H](O)CO)[C@@H]1O (stereo partly specified) [stibogluconate] + Clc1ccc(Nc2nnc(Cc3ccncc3)c3ccccc23)cc1 [vatalanib] (first compound 2 µM, partner dose 2 µM) | 50.4% |
| CO[C@H]1C[C@@H]2CC[C@@H](C)[C@@](O)(O2)C(=O)C(=O)N2CCCC[C@H]2C(=O)O[C@H]([C@H](C)C[C@@H]2CC[C@@H](OCCO)[C@H](OC)C2)CC(=O)[C@H](C)/C=C(\C)[C@@H](O)[C@@H](OC)C(=O)[C@H](C)C[C@H](C)/C=C/C=C/C=C/1C [everolimus] + O=C(CCCCCCC(=O)Nc1ccccc1)NO [vorinostat] (first compound 0.02 µM, partner dose 0.08 µM) | 102% |
| CO[C@H]1C[C@@H]2CC[C@@H](C)[C@@](O)(O2)C(=O)C(=O)N2CCCC[C@H]2C(=O)O[C@H]([C@H](C)C[C@@H]2CC[C@@H](OCCO)[C@H](OC)C2)CC(=O)[C@H](C)/C=C(\C)[C@@H](O)[C@@H](OC)C(=O)[C@H](C)C[C@H](C)/C=C/C=C/C=C/1C [everolimus] + Clc1ccc(Nc2nnc(Cc3ccncc3)c3ccccc23)cc1 [vatalanib] (first compound 0.02 µM, partner dose 2 µM) | 142% |
| CO[C@H]1C[C@@H]2CC[C@@H](C)[C@@](O)(O2)C(=O)C(=O)N2CCCC[C@H]2C(=O)O[C@H]([C@H](C)C[C@@H]2CC[C@@H](OCCO)[C@H](OC)C2)CC(=O)[C@H](C)/C=C(\C)[C@@H](O)[C@@H](OC)C(=O)[C@H](C)C[C@H](C)/C=C/C=C/C=C/1C [everolimus] + O=C(O)c1ccc2c(c1)nc(Nc1cccc(Cl)c1)c1ccncc12 [CX4945] (first compound 0.02 µM, partner dose 0.4 µM) | 88.6% |
| CO[C@H]1C[C@@H]2CC[C@@H](C)[C@@](O)(O2)C(=O)C(=O)N2CCCC[C@H]2C(=O)O[C@H]([C@H](C)C[C@@H]2CC[C@@H](OCCO)[C@H](OC)C2)CC(=O)[C@H](C)/C=C(\C)[C@@H](O)[C@@H](OC)C(=O)[C@H](C)C[C@H](C)/C=C/C=C/C=C/1C [everolimus] + CNC(=O)c1cc(Oc2ccc(NC(=O)Nc3ccc(Cl)c(C(F)(F)F)c3)cc2)ccn1 [sorafenib] (first compound 0.02 µM, partner dose 0.4 µM) | 35.2% |
